About 22,000 (6.9%) of roughly 320,000 compounds were called active. Inconclusive results, whose numbers are uncertain, are shown with a selection of clear calls. Calls come from the whole dose curve; as a rule, active = well fitted inhibition curve with a large enough effect; inconclusive = small, poorly fitted or top-dose-only effect, or another doubt; inactive = no such curve, though single readings can be large or run the other way. A potency beside an inconclusive call is a rough fit, not a confirmed value.
Assay: Primary qHTS for delayed death inhibitors of the malarial parasite plastid, 96 hour incubation
Conditions: P. falciparum luciferase reporter growth; series mostly up to 28.7 µM; activity change, negative = inhibition: at the top concentration
How it was run: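 Two parasite generations (96 h, 37 C, 5% CO2) of compound exposure in infected erythrocytes (0.05% parasitemia, 2% hematocrit). Luciferase-reporter P. falciparum; decreased luminescence indicates inhibited growth, aimed at apicoplast-acting delayed death.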
For `O=C(N/N=C/C=C/c1ccccc1)NC1CCCCC1`, the “activity change, negative = inhibition” value was inactive: 2.07%.
With `COc1ccc(N2CCN(C(=O)Cc3ccc(S(=O)(=O)N4CCOCC4)s3)CC2)cc1` the Potency was inconclusive: 1.85 µM [inhibitor, full curve, poor fit].
For `COc1cccc(NC(=S)N2CCN(S(C)(=O)=O)CC2)c1`, the Potency was active: 4.15 µM.
In the case of `Cc1nc2ccccn2c1/C(O)=C1\C(=O)C(=O)N(CCN2CCOCC2)C1c1cccnc1` (stereo not given), the “activity change, negative = inhibition” value is reported as inactive: 41.7%.
With `Cc1nc(C2CCC3C4CCC5=CC(=O)CC[C@]5(C)C4CC[C@]23C)cs1` (stereo not given in full) the “activity change, negative = inhibition” value was inactive: -13%.
In the case of `COc1ccc(CNC(=O)C2CCN(S(=O)(=O)N3CCCC3)CC2)c(OC)c1`, the “activity change, negative = inhibition” value is reported as inactive: 24.2%.
In the case of `COc1cc(NC(=S)NCCN2CCOCC2)cc(OC)c1`, the “activity change, negative = inhibition” value is reported as inactive: 10.1%.
With `CCCC(=O)Nc1nc2ccc(C(=O)OCC)cc2s1` the Potency was inconclusive: 2.62 µM [inhibitor, single point].
With `O=C1NNC(c2ccccc2)=N/C1=C\c1ccccc1` the Potency was inconclusive: 18.5 µM [inhibitor, single point].
With `C=CCNc1sc(C(=O)c2ccccc2)c(N)c1-c1nc2ccccc2s1` the Potency was inconclusive: 20.8 µM [inhibitor, partial curve, poor fit].
For `CCOC(=O)C(C)n1nc(/C=C/c2ccc(OC)cc2)ccc1=O` (stereo not given), the Potency was active: 9.28 µM.
In the case of `Cc1cc(=O)n(C)c(=O)n1CCCCCOc1cccc([N+](=O)[O-])c1`, the Potency is reported as inconclusive: 10.4 µM [inhibitor, single point].
In the case of `O=C(Cc1coc(-c2ccc(F)cc2)n1)NC1CCCCC1`, the Potency is reported as inconclusive: 1.47 µM [inhibitor, full curve].
For `C/C(CC(=O)Nc1ccc(Br)cc1)=N\NC(=O)c1cccc(O)c1`, the Potency was inconclusive: 18.5 µM [inhibitor, single point].
In the case of `O=C(CCn1c(=S)oc2ccccc21)Nc1ccccc1Br`, the “activity change, negative = inhibition” value is reported as inactive: 4.13%.
In the case of `COc1ccc(Cl)cc1NC(=S)NCc1ccccn1`, the Potency is reported as inconclusive: 18.5 µM [inhibitor, single point].
For `Clc1cccc(-c2sc(Nc3ccccc3)n[n+]2-c2ccccc2)c1Cl`, the Potency was inconclusive: 18.5 µM [inhibitor, single point].
For `CN(C)CCCN(C(=O)CCc1ccccc1)c1nc2ccc(Br)cc2s1`, the Potency was inconclusive: 10.4 µM [inhibitor, single point].
In the case of `Cc1ccccc1NC(=O)CN1C(=O)S/C(=C\c2ccc(-c3cccc(C(=O)O)c3C)o2)C1=O`, the Potency is reported as inconclusive: 0.0465 µM [inhibitor, full curve, poor fit].
In the case of `CC(=O)Nc1ccc(S(=O)(=O)N(C)CC(=O)OCC(=O)Nc2cccnc2Cl)cc1`, the “activity change, negative = inhibition” value is reported as inactive: 50.1%.
In the case of `CCOC(=O)c1cnc2c(cnn2C)c1Cl`, the Potency is reported as inconclusive: 18.5 µM [inhibitor, single point].
In the case of `O=C(CSc1nnc(-c2ccccc2)c2ccccc12)NCCN1C(=O)CSC1=O`, the Potency is reported as inconclusive: 18.5 µM [inhibitor, single point].
For `O=C(c1cc(Cl)nc2ccccc12)N(Cc1nnc(-c2ccc(Cl)cc2)o1)C1CC1`, the Potency was inconclusive: 14.7 µM [inhibitor, single point].
In the case of `CCOc1ccccc1CNC(=O)c1cc2occc2n1C`, the “activity change, negative = inhibition” value is reported as inactive: 63.7%.
For `COc1cc(C2c3c(oc4ccccc4c3=O)C(=O)N2Cc2cccnc2)cc(OC)c1OC` (stereo not given), the Potency was inconclusive: 7.38 µM [inhibitor, partial curve, poor fit].
In the case of `O=C(Nc1cccc(-c2cn3cccnc3n2)c1)c1ccco1`, the Potency is reported as inconclusive: 10.4 µM [inhibitor, partial curve, poor fit].
With `O=C(COc1ccc(Cl)cc1)NCc1nnc(SCC(=O)NCC2CCCO2)o1` (stereo not given) the Potency was inconclusive: 11.7 µM [inhibitor, partial curve].
For `COc1cccc(NC(=O)C2CCN(C(=O)[C@@H]3Cc4ccccc4CN3C(=O)OC(C)(C)C)CC2)c1`, the Potency was inconclusive: 11.7 µM [inhibitor, partial curve, poor fit].
With `O=C(NCc1ccccc1CN1CCCC1)C1CCN(C(=O)c2ccc(F)cc2)CC1` the “activity change, negative = inhibition” value was inactive: -8.33%.
For `COc1ccc(C2=C(C=C(C#N)C#N)C(c3ccccc3C)c3ccccc3O2)cc1OC` (stereo not given), the Potency was inconclusive: 10.4 µM [inhibitor, single point].
In the case of `O=C(Cn1ncc2c(=O)oc3ccccc3c21)Nc1nc2ccccc2s1`, the Potency is reported as inconclusive: 4.65 µM [inhibitor, partial curve, poor fit].
With `CC/C(=N\NC(=O)c1ccc(Br)cc1)c1ccccc1` the “activity change, negative = inhibition” value was inactive: 25.6%.
For `O=C(NC(Cc1ccccc1)C(=O)NCCc1ccccn1)c1ccccc1` (stereo not given), the Potency was inconclusive: 0.0928 µM [inhibitor, full curve, poor fit].
For `CCn1cc(CN2CCC(n3nccc3NC(=O)c3cccc(F)c3)CC2)c(C)n1`, the “activity change, negative = inhibition” value was inactive: 1.4%.
With `Cc1occc1-c1nnc(SCC(=O)N(C)CCC#N)n1N` the “activity change, negative = inhibition” value was inactive: -5.26%.
With `NC(=O)C1(N2CCCCC2)CCN(CC(=O)Nc2ccccc2Sc2ccccc2)CC1` the Potency was inconclusive: 0.0033 µM [inhibitor, full curve, poor fit].
For `CC(=O)N1c2ccc(S(=O)(=O)N3CCC(C(=O)NC4CCC(C)CC4)CC3)cc2CC1C` (stereo not given), the Potency was active: 5.22 µM.
For `COc1ccccc1-c1c(C(F)(F)F)oc2cc(OC(=O)c3ccc([N+](=O)[O-])cc3)ccc2c1=O`, the Potency was inconclusive: 11.7 µM [inhibitor, partial curve, poor fit].
For `CCC(=O)N1CCN(c2ccc(NC(=O)c3ccc([N+](=O)[O-])o3)cc2)CC1`, the “activity change, negative = inhibition” value was inactive: 417%.
In the case of `Cc1cc(C)n(-c2ccccc2C#N)n1`, the Potency is reported as inconclusive: 9.28 µM [inhibitor, partial curve, poor fit].
For `COc1ccccc1NC(=S)NC(C)=O`, the Potency was inconclusive: 9.28 µM [inhibitor, partial curve, poor fit].
For `COc1ccccc1OCCNC(=O)C1CCN(C(C)=O)CC1`, the “activity change, negative = inhibition” value was inactive: 49.8%.
For `Cc1ccc(NC(=O)c2ccc(CSc3nnc(-c4ccncc4)n3C)cc2)c(C)c1`, the Potency was inconclusive: 11.7 µM [inhibitor, partial curve, poor fit].
In the case of `N#Cc1cccc(NC(=O)c2ccc(S(=O)(=O)N3CCOCC3)cc2)c1`, the Potency is reported as inconclusive: 9.28 µM [inhibitor, single point].
In the case of `Cc1ccc(S(=O)(=O)c2c(COC(=O)c3ccccc3Cl)c(-c3ccccc3)nn2C)cc1`, the Potency is reported as active: 6.57 µM.
In the case of `O=C(c1cc2ccccc2oc1=O)N(Cc1ccccc1)CC1CCCO1` (stereo not given), the Potency is reported as inconclusive: 18.5 µM [inhibitor, single point].
With `Cc1ccc(C)n1-c1ccc(C(=O)NCc2cccnc2)cc1` the Potency was inconclusive: 13.1 µM [inhibitor, single point].
With `NS(=O)(=O)c1ccc(CCNC(=O)C(=O)NCC2OCCN2S(=O)(=O)c2ccc(Cl)cc2)cc1` (stereo not given) the Potency was inconclusive: 0.0738 µM [inhibitor, full curve, poor fit].
For `O=C(Cn1nc(Cl)nc1Cl)c1ccc([N+](=O)[O-])cc1`, the Potency was active: 2.94 µM.
With `O=C(COC(=O)c1ccccc1Nc1ccccc1)NCc1ccccc1Cl` the Potency was active: 13.1 µM.
For `Cc1ccc(-n2c(-c3ccc(Cl)cc3)n[nH]c2=S)c(C)c1`, the Potency was inconclusive: 18.5 µM [inhibitor, single point].
In the case of `O=C(Nc1cc(S(=O)(=O)N2CCCCC2)ccc1Cl)C1=NN(c2ccccc2)C(=O)CC1`, the Potency is reported as inconclusive: 4.15 µM [inhibitor, full curve].
With `C=CCOn1c(C)c(C(C)=O)c2c3no[n+]([O-])c3ccc21` the Potency was inconclusive: 18.5 µM [inhibitor, single point].
With `CSCCC(NC(=O)COc1ccccc1)C(=O)OCc1ccc([N+](=O)[O-])cc1` (stereo not given) the “activity change, negative = inhibition” value was inactive: 22.9%.
With `Oc1ccc(C[C@@H]2CNCCN2CCc2cc(C(F)(F)F)cc(C(F)(F)F)c2)cc1` the Potency was inconclusive: 18.5 µM [inhibitor, single point].
In the case of `COC(=O)C1=C(CCc2ccccc2)NC(=O)NC1c1ccc(Br)cc1` (stereo not given), the Potency is reported as active: 13.1 µM.
For `CC(=O)c1cccc(NC(=O)c2cc(-c3cccs3)on2)c1`, the “activity change, negative = inhibition” value was inactive: 2.71%.
With `C=C(Cl)COc1ccc2c(CCC)cc(=O)oc2c1` the Potency was inconclusive: 18.5 µM [inhibitor, single point].
With `NC(=NC(=O)c1ccccc1)N1N=CCC1c1ccccc1` (stereo not given) the “activity change, negative = inhibition” value was inactive: 44.6%.
For `CCNc1nc(SCC(N)=O)nc2sc3c(c12)CCN(C)C3`, the Potency was active: 1.04 µM.
In the case of `COc1ccccc1C(=O)NNC(=O)CCN1C(=O)/C(=C\c2ccccc2)SC1=S`, the “activity change, negative = inhibition” value is reported as inactive: -14.8%.
For `CC(NC(=O)c1noc2c1CCCCC2)c1ccccc1` (stereo not given), the Potency was inconclusive: 11.7 µM [inhibitor, partial curve, poor fit].
For `COc1cccc(Oc2c(C)oc3cc(OC(=O)N(C)C)ccc3c2=O)c1`, the Potency was inconclusive: 8.28 µM [inhibitor, partial curve].
For `O=C(Nc1nccs1)C1CC(=O)N(c2ccc(F)cc2)C1` (stereo not given), the “activity change, negative = inhibition” value was inactive: 28.9%.
For `O=C(NCC1CCCN(C(=O)c2cscn2)C1)c1ccc(-c2ccccc2)cc1` (stereo not given), the Potency was inconclusive: 13.1 µM [inhibitor, partial curve, poor fit].
With `CC(C)C[C@H](NC(=O)C1CCN(S(=O)(=O)c2ccccc2)CC1)C(=O)NCc1ccncc1` the “activity change, negative = inhibition” value was inactive: -5.69%.
For `COC(=O)COc1ccc(S(=O)(=O)N2CCCCCC2)cc1C`, the Potency was inconclusive: 9.28 µM [inhibitor, single point].
In the case of `O=C(N/N=C\c1cc2c(cc1Cl)OCO2)c1cccs1`, the “activity change, negative = inhibition” value is reported as inactive: 44%.
For `Clc1ccc(Sc2cc(N3CCOCC3)nc(-c3ccccc3)n2)cc1`, the Potency was inconclusive: 0.0329 µM [inhibitor, full curve, poor fit].
In the case of `CC(C)(C)NC(=O)CSc1nc(-c2ccccc2)cc(=O)[nH]1`, the Potency is reported as inconclusive: 18.5 µM [inhibitor, single point].

Reference: PubChem BioAssay AID504834 (National Center for Advancing Translational Sciences (NCATS), 2011)
% is set by controls: 0 for no effect and ±100 for the full control effect; potency is the fitted concentration of half-maximal effect.
